From PMC4413608
These are yes or no findings as the source states them, for the method shown. Binding seen in cells or lysates may run through a third protein. Some results given as binding are weak or reduced against the parent protein; the word gives no strength.

By UniProt entry, the sequences of proteins in these tests, tags left out. Residues count along the entry.
UniProt P30101, residues 25-505: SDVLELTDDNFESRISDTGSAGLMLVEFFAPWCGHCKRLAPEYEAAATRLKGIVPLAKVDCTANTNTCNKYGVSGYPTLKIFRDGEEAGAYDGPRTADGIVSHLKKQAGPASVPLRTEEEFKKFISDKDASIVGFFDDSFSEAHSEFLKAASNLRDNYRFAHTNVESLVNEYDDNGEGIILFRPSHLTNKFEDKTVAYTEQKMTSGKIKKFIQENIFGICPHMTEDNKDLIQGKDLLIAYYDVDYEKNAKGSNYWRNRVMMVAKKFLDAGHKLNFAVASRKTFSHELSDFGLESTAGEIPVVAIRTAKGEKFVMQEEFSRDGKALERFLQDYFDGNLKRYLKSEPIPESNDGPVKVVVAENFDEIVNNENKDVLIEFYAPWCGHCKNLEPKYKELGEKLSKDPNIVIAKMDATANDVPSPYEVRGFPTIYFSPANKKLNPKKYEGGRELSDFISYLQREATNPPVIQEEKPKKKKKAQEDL
UniProt P40763: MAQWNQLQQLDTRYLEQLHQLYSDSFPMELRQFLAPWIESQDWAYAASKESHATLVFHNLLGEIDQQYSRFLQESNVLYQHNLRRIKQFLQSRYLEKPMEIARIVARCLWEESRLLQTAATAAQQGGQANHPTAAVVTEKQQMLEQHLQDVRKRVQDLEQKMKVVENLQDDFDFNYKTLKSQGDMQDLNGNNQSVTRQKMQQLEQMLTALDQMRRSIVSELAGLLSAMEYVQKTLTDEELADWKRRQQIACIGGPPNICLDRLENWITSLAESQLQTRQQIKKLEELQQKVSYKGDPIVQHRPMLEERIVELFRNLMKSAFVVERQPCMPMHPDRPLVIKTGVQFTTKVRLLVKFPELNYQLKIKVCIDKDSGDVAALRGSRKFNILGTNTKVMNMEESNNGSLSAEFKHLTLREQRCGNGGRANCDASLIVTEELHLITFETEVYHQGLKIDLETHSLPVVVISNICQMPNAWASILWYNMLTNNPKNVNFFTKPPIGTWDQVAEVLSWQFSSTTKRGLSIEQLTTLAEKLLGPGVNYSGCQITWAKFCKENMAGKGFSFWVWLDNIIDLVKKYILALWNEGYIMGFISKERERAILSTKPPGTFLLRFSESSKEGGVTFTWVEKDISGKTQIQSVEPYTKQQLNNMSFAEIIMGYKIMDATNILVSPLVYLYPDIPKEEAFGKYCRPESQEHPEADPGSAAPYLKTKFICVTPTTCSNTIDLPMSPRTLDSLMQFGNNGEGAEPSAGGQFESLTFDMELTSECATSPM

How the values were obtained:
[1] = molecular target: ERp57 (human (endogenous in HEp-2)) (UniProt P30101); test: proximity ligation; in situ PLA (Duolink) on antigen-retrieved human laryngeal cancer tissue sections (n = 106); anti-ERp57 and anti-STAT3 antibodies; confocal microscopy
[2] = molecular target: ERp57 (human (endogenous in HEp-2)) (UniProt P30101); test: proximity ligation; in situ PLA (Duolink) on paraformaldehyde-fixed, permeabilised HEp-2 and RR-HEp-2 cells, untreated or 6 Gy radiation for 12 h; anti-ERp57 and anti-STAT3 antibodies; confocal microscopy, dots per cell counted with CellProfiler
[3] = molecular target: ERp57 (human (endogenous in HEp-2)) (UniProt P30101); test: co-IP; NP-40 lysates of HEp-2 and RR-HEp-2 cells, untreated or 6 Gy radiation for 12 h; precipitated with anti-ERp57 or anti-STAT3 antibody (control IgG), protein G-Sepharose, immunoblot for the other protein

binding [1]: binds
binding [2]: binds
binding [3]: binds
Substance: Signal transducer and activator of transcription 3 (STAT3) (from UniProt P40763 1-770)
